Measurements reported in PubChem BioAssay AID1259424 (University of Nebraska Medical Center, 2018).
In all, the deposit lists about 14,000 reagents; below is a random part of them. 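Higher correlation or smaller distance means closer resemblance to KSR1 loss; control wells, including KSR1 knockdowns, recur on many plates.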 The record does not give: the time to read-out.

Screen: 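Rank knockdowns across the genome by resemblance to the KSR1 depletion profile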 (primary screen)
Cells: human HCT116 colon cancer cells
Reagent: siRNA pool against human genes, 50 nM
Measured: 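Six signature mRNAs by branched-DNA multiplex assay, scaled to two housekeeping genes and non-targeting median, log2; matched to mean KSR1 knockdown profile by Pearson correlation and euclidean distance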
Scale: mean correlation with KSR1 profile and KSR1 correlation: higher = expression change more like KSR1 knockdown; mean distance from KSR1 profile: higher = expression change less like KSR1 knockdown

no.	Target gene	mean correlation with KSR1 profile	mean distance from KSR1 profile	KSR1 correlation, replicate 1	KSR1 correlation, replicate 2	KSR1 correlation, replicate 3
1	HCCS	-0.348	1.34	-0.416	-0.47	-0.351
2	PKMYT1	0.685	1.47	0.405	0.92	0.691
3	TMEM9B	-0.233	4.3	-0.256	-0.313	-0.331
4	FUT9	-0.267	1.76	-0.0911	-0.341	-0.163
5	ATL1	0.34	2.6	0.396	0.417	0.0525
6	NHEJ1	0.562	1.2	0.628	0.843	0.237
7	HPD	-0.128	2.98	-0.0168	-0.264	-0.0702
8	ERVW-1	0.192	1.51	-0.232	-0.153	0.0954
9	EPS15	0.421	1.51	0.61	0.422	0.275
10	GDAP2	-0.132	2.86	-0.337	-0.211	-0.0932
11	TMEM186	-0.0532	4.42	0.118	-0.325	0.101
12	ERCC1	-0.235	3.86	-0.154	-0.28	-0.394
13	ANKMY1	0.0157	1.45	0.0265	0.0284	-0.0682
14	PDCD2L	0.903	1.85	0.863	0.822	0.907
15	NUBP2	0.587	1.38	0.456	0.529	0.355
16	GCH1	0.363	2.05	0.303	0.446	0.36
17	GTF2E2	0.692	1.29	0.7	0.644	0.593
18	CSNK1D	0.485	1.95	0.43	0.216	0.486
19	SLC6A6	-0.287	2.1	-0.122	-0.495	-0.163
20	CDC45	0.107	1.98	0.179	0.132	-0.0566
21	WDFY3	-0.0956	1.27	0.0658	-0.446	-0.0184
22	TMUB2	-0.498	4.1	-0.374	-0.524	-0.514
23	CACNA2D3	0.626	1.57	0.467	0.867	0.591
24	RHOG	-0.123	3.71	-0.194	-0.104	-0.0179
25	SLC22A12	-0.612	1.61	0.00515	-0.778	-0.473
26	C4orf17	0.858	1.02	0.767	0.878	0.863
27	ZNF414	0.162	2.1	0.0181	0.23	0.139
28	MC1R	0.934	1.21	0.985	0.864	0.934
29	TOPORS	-0.15	1.4	-0.397	0.0287	-0.393
30	ZNF611	0.175	2.26	0.127	0.178	-0.148
31	MCPH1	-0.13	2.71	0.0502	-0.23	-0.385
32	RNF125	-0.615	6.38	-0.252	-0.337	-0.33
33	CTH	-0.907	3.95	-0.888	-0.919	-0.537
34	LMO2	-0.116	1.72	0.0911	-0.311	-0.441
35	YEATS2	-0.113	2.9	-0.0292	0.12	-0.273
36	TNFSF14	-0.53	1.8	-0.487	-0.396	-0.487
37	CCDC71	-0.0231	2.23	-0.244	-0.342	0.0597
38	RYR2	-0.785	1.99	-0.323	-0.721	-0.903
39	DAP3	0.457	1.21	0.473	0.304	0.438
40	MTMR4	0.397	2.34	0.349	0.469	0.43
41	ATP9A	0.414	1.94	0.449	0.26	0.422
42	CDK12	-0.106	2.16	0.0228	-0.122	-0.524
43	ENDOG	-0.475	3.76	-0.389	-0.658	-0.369
44	TCERG1	0.645	1.51	0.421	0.761	0.572
45	ALG8	0.239	1.35	0.426	0.492	0.0382
46	MSL3	-0.64	3.22	-0.537	-0.607	-0.549
47	SLA	-0.102	5.11	-0.116	-0.131	-0.0713
48	TRIOBP	-0.616	2.23	-0.548	-0.654	-0.622
49	TBX21	0.479	1.69	0.632	0.0826	0.62
50	NUDT22	-0.0035	2.17	-0.19	-0.188	0.275
